Among all 300,000 compounds or so, about 5,400 (1.8%) were called active. Inconclusive results, whose numbers are uncertain, are shown with a selection of clear calls. Calls follow the shape of the full dose curve; tested in HEK293 cells. Potencies of inconclusive entries are doubtful fits and often do not repeat.
Test: qHTS for inhibitors of binding or entry into cells for Marburg Virus
Settings: Marburg virus pseudotyped entry inhibition, cell reporter; activity change, negative = inhibition: at 37.8 µM (top of the series) unless noted
% is scaled to controls: 0 for no effect and ±100 for the full control effect; potency is read from the fitted curve at half-maximal effect.

| Structure (SMILES) | activity change, negative = inhibition | Potency |
| --- | --- | --- |
| CCNC(=S)N1CCC(C(O)(c2ccccc2)c2ccccc2)CC1 | inactive: -22.2% [at 46.1 µM] |  |
| N#CCN1CCN(CC(=O)Nc2ccc(OCc3ccccc3)cc2)CC1 |  | inconclusive: 23.1 µM [activator, single point] |
| N#CCCS(=O)(=O)c1nnnn1-c1ccccc1 | inactive: -3.66% |  |
| Cc1cc2oc(=O)cc(C)c2cc1NC(=O)CCl |  | inconclusive: 35.5 µM [inhibitor, single point] |
| CCN(CC)c1ccc2c(Cl)cc(=O)oc2c1 |  | inconclusive: 1.41 µM [inhibitor, partial curve, poor fit] |
| COc1ccc(NS(=O)(=O)c2ccc(C)c(NC(=O)NC3CCCCC3)c2)cc1 |  | inconclusive: 31.6 µM [inhibitor, single point] |
| S=c1[nH]ccc2ccccc12 | inactive: -1.11% |  |
| CCOC(=O)Cc1ccc2sc(-c3ccccc3)nc2c1 |  | inconclusive: 1.03 µM [activator, full curve, poor fit] |
| O=C(Nc1nccs1)c1ccc(-c2ccccc2Cl)o1 |  | inconclusive: 29.1 µM [inhibitor, single point] |
| CCOC(=O)c1c(C)nc2sc(C(N)=O)c(N)c2c1-c1ccc(OC)cc1 |  | inconclusive: 11.2 µM [inhibitor, single point] |
| CC(=O)c1cccc(NC(=O)CCN2C(=O)C3C4CCC(C4)C3C2=O)c1 (centres undefined) | inactive: -5.06% |  |
| COc1ccc(-n2ncc3c(=O)n(CC(=O)N4c5ccccc5CC4C)cnc32)cc1 (centres undefined) |  | inconclusive: 32.6 µM [inhibitor, partial curve, poor fit] |
| CCCCn1nnc(NC(=O)c2ccc(-c3ccccc3)cc2)n1 |  | inconclusive: 2.82 µM [activator, single point] |
| C/C(=N\S(=O)(=O)c1ccc(C)cc1)Nc1cc(C(C)C)c(O)cc1C |  | inconclusive: 7.08 µM [inhibitor, partial curve, poor fit] |
| CC(C)C(=O)Nc1ncc(Cc2cccc(Cl)c2)s1 |  | inconclusive: 7.94 µM [inhibitor, partial curve, poor fit] |
| CCOC(=O)CN(C)Cc1cn[nH]c1-c1ccc2cc(OC)ccc2c1 |  | inconclusive: 35.5 µM [inhibitor, single point] |
| COc1ccc2oc(C(=O)Nc3nnc(C)s3)c(C)c2c1 |  | inconclusive: 2.82 µM [inhibitor, partial curve, poor fit] |

Looked up one by one from the entries so far:

| Structure (SMILES) | activity change, negative = inhibition | Potency |
| --- | --- | --- |
| N#CCN1CCN(CC(=O)Nc2ccc(OCc3ccccc3)cc2)CC1 |  | inconclusive: 23.1 µM [activator, single point] |
| CC(C)C(=O)Nc1ncc(Cc2cccc(Cl)c2)s1 |  | inconclusive: 7.94 µM [inhibitor, partial curve, poor fit] |
| COc1ccc(-n2ncc3c(=O)n(CC(=O)N4c5ccccc5CC4C)cnc32)cc1 (centres undefined) |  | inconclusive: 32.6 µM [inhibitor, partial curve, poor fit] |

Carrying on:

| Structure (SMILES) | activity change, negative = inhibition | Potency |
| --- | --- | --- |
| CCOC(=O)c1ccc(-c2ccc(C3Nc4ccccc4C(=O)N3O)o2)cc1 (centres undefined) |  | inconclusive: 0.058 µM [inhibitor, full curve, poor fit] |
| N#CCCN(C(=O)CSc1n[nH]c(=O)[nH]c1=O)c1ccccc1 |  | inconclusive: 3.55 µM [activator, full curve, poor fit] |
| Cc1ccc(-c2cc(C(=O)n3cnc4ccccc43)c3ccccc3n2)cc1C |  | inconclusive: 15.8 µM [inhibitor, single point] |
| Cc1cc(Nc2ccc(Cl)cc2)n(-c2cccc(Cl)c2)n1 |  | inconclusive: 35.5 µM [inhibitor, partial curve, poor fit] |
| O=C(NCc1ccncc1)c1cccc(NS(=O)(=O)c2ccc(F)c(F)c2)c1 |  | inconclusive: 35.5 µM [inhibitor, partial curve, poor fit] |
| CCc1cccc(N(C(=O)c2csnn2)C(C(=O)NC2CCCC2)c2cccnc2)c1 (centres undefined) | inactive: -7.96% [at 46.1 µM] |  |
| COc1ccccc1-c1nnc(SCC(=O)Nc2nc(-c3ccccc3)cs2)n1C |  | active: 23.1 µM |
| NC(=S)NN=CCn1cc([N+](=O)[O-])c(=O)[nH]c1=O | inactive: 9.53% [at 46.1 µM] |  |
| CC(=O)Nc1cccc(C(=O)OCc2csc(CC(=O)Nc3ccccc3C)n2)c1 | inactive: -17% |  |
| COc1ccc(-c2cc(=O)c3ccccc3s2)cc1 |  | inconclusive: 32.6 µM [inhibitor, single point] |
| O=C(NCC1CCCO1)C(c1cccs1)N(C(=O)c1ccc(-c2ccccc2)[nH]1)C1CCCC1 (centres undefined) |  | inconclusive: 35.5 µM [inhibitor, single point] |
| CCOc1ccccc1N1CCN(C(=O)COc2ccc3c(C)cc(=O)oc3c2)CC1 |  | inconclusive: 11.2 µM [inhibitor, single point] |
| O=C(COC(=O)c1cc(-c2ccccc2)nc2ccccc12)Nc1ccc2c(c1)OCO2 |  | inconclusive: 16.4 µM [inhibitor, partial curve, poor fit] |
| On1nnc2ccc3ccccc3c21 |  | inconclusive: 17.8 µM [activator, partial curve, poor fit] |
| CCCCNCCOCCOc1ccc(C)cc1[N+](=O)[O-] |  | inconclusive: 9.2 µM [inhibitor, partial curve, poor fit] |
| CS(=O)(=O)N(CC(=O)NCCSCc1cccc(Cl)c1)c1ccc2c(c1)OCO2 |  | inconclusive: 0.112 µM [activator, full curve, poor fit] |
| COc1cccc(/C=C2\SC(=S)N(CC3CCCO3)C2=O)c1 (centres undefined) |  | inconclusive: 0.0731 µM [activator, partial curve, poor fit] |

Source: PubChem BioAssay AID540276 (National Center for Advancing Translational Sciences (NCATS), 2011)
